The subject of the assay is T1, μ-receptor (μ-receptor-RLuc8).
T1 construct: gene Oprm1; construct from Gillis, Gondin et al. 2020
As to the kind of experiment: BRET, Nb33-Venus recruitment to μ-receptor-RLuc8 in HEK293 cells. It counts as cell-based. Conditions: agonist; 10 min after addition, normalised to DAMGO.

As to `CN1CC[C@]23c4c5ccc(O)c4O[C@H]2[C@@H](O)C=C[C@H]3[C@H]1C5` [morphine], the negative-log EC50 (pEC50) is given as 6.0 ± 0.07.

The values are drawn from paper PMC10952895, “Assessment of the potential of novel and classical opioids to induce respiratory depression in mice” (British Journal of Pharmacology, 2023).
